In publication PMC5706870:
These are yes or no findings as the source states them, for the method shown. For part of these data: In cells and extracts the contact can be indirect. Some binding calls cover weakened binding; strength is not graded here. For part of these data: Tags and fused reporters may be left off the sequences shown. Values belong to the substance of their own block, whether it stands above or below them.

Protein sequences, listed by entry. Tags and fused reporters are not part of them.
UniProt Q04206: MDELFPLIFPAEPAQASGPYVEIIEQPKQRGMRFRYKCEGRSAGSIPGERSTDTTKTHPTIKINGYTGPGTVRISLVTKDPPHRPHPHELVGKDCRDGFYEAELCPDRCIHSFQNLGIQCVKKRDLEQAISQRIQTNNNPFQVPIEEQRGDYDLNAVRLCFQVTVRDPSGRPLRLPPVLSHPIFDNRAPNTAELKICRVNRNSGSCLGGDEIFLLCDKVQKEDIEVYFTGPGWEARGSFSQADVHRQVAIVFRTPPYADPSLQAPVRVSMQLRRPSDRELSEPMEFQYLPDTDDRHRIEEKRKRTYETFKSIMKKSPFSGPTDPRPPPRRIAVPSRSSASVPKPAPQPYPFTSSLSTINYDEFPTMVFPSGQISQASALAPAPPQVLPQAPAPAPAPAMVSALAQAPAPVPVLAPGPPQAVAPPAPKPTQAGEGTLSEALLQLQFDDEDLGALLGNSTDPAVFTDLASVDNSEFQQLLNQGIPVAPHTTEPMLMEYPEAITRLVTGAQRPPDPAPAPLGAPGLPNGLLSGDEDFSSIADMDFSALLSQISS
UniProt Q9UQL6: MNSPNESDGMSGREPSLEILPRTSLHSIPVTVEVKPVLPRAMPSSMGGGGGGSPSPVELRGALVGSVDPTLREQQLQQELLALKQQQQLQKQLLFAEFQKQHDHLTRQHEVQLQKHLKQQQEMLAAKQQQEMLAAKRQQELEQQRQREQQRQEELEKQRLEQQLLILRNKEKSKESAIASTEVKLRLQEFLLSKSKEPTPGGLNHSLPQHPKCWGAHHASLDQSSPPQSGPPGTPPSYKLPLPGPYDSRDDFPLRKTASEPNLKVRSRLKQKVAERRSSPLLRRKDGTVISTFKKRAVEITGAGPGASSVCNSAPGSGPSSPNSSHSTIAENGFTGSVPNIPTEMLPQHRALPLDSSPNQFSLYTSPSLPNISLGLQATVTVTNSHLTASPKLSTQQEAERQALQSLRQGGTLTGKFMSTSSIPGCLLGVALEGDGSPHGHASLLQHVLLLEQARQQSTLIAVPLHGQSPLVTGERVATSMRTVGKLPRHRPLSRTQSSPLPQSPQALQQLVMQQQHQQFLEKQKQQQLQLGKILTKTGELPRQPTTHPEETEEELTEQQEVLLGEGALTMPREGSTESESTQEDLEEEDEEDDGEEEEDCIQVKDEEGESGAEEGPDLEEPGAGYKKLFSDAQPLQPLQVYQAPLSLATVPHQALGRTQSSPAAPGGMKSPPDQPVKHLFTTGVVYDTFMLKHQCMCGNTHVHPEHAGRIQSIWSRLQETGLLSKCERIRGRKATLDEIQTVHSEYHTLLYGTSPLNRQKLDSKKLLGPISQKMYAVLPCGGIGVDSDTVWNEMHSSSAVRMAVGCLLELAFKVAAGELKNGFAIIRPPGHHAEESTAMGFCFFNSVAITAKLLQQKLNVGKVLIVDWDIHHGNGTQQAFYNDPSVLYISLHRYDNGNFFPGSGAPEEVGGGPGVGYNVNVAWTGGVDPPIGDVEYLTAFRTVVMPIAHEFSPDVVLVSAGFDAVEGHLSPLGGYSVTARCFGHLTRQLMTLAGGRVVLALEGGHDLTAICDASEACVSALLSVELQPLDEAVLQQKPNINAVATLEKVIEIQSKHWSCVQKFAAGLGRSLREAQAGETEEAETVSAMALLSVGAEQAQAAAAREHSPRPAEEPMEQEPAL
UniProt Q04207: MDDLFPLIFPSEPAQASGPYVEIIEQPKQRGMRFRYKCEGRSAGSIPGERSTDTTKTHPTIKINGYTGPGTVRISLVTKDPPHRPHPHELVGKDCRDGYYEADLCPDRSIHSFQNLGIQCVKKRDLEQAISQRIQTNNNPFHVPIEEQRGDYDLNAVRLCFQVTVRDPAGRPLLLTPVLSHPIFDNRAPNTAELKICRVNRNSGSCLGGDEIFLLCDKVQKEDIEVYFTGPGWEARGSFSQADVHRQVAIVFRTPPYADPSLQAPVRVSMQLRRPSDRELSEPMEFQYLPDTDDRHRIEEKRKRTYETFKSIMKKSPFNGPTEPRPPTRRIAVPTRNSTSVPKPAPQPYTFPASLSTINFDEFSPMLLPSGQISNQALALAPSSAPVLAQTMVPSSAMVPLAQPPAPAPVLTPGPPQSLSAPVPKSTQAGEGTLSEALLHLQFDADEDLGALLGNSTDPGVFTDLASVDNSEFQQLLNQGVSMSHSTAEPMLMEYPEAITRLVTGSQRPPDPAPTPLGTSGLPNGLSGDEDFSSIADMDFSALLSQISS

Assays:
[1] = molecular target: FLAG-tagged MKL1 (megakaryocytic leukemia 1) (UniProt Q969V6); assay: co-IP; FLAG-MKL1 and HA-HDAC5 co-transfected into HEK293 cells; whole cell lysate in RIPA buffer (50 mM Tris pH7.4, 150 mM NaCl, 1% Triton X-100); precipitated with anti-FLAG, and reciprocally with anti-HA; Western blot
[2] = molecular target: FLAG-tagged MKL1 (megakaryocytic leukemia 1) (UniProt Q969V6); assay: co-IP; FLAG-MKL1 and V5-p65 transfected into HEK293 cells in the presence or absence of HDAC5; precipitated with anti-FLAG; Western blot
[3] = molecular target: endogenous MKL1 of THP-1 cells (human (endogenous in THP-1)) (UniProt Q969V6); assay: co-IP; whole cell lysates of THP-1 cells, endogenous proteins; RIPA buffer; precipitated with indicated antibodies or pre-immune IgG, Protein A/G-plus agarose; Western blot
[4] = molecular target: T1, endogenous MKL1 of RAW264 cells (mouse (endogenous in RAW264)) (UniProt Q8K4J6); assay: co-IP; RAW264 cells (Supplementary Figure 3); as the THP-1 experiment with HDAC5 silencing
T1 sequence: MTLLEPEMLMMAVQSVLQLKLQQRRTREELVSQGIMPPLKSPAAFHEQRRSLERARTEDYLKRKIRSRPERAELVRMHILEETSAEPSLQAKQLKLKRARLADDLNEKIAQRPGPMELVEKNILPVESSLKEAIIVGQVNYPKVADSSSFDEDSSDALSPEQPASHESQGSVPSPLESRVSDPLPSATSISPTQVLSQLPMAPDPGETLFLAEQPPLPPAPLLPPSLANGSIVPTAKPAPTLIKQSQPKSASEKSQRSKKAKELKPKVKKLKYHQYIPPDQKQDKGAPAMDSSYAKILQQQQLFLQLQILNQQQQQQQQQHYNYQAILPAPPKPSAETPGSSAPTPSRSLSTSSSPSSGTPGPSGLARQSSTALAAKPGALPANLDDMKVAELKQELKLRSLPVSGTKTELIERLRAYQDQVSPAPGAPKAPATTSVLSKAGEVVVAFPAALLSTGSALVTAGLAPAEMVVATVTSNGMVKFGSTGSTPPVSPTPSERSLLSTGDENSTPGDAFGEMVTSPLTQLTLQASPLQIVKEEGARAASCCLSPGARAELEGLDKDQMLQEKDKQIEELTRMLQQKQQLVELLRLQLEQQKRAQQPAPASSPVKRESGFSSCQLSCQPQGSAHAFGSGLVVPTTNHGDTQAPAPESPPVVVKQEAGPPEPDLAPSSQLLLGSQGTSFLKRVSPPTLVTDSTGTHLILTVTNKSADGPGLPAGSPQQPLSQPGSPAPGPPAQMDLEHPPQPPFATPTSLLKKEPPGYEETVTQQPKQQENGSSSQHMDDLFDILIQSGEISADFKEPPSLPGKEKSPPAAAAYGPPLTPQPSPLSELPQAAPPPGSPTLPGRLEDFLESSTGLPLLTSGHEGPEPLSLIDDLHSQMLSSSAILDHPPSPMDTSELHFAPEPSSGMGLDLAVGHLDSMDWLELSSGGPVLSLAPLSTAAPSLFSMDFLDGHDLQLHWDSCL

[5] = molecular target: endogenous MKL1 of THP-1 cells (human (endogenous in THP-1)) (UniProt Q969V6); assay: Re-ChIP; THP-1 cells, TNF-α (10ng/ml), with HDAC5 expression construct or empty vector, or siRNA targeting HDAC5 or scrambled siRNA; chromatin cross-linked with 1% formaldehyde; sequential ChIP with indicated antibodies; qPCR of IL-1, IL-6, TNF-α and GAPDH promoters
[6] = molecular target: endogenous MKL1 of THP-1 cells (human (endogenous in THP-1)) (UniProt Q969V6); assay: co-IP; THP-1 cells transfected with siRNA targeting HDAC5 or scrambled siRNA, then TNF-α (10ng/ml); endogenous proteins; precipitated with anti-MKL1; Western blot

Substance: V5-tagged p65 (NF-κB p65 subunit) (from UniProt Q04206 1-551)
binding [2]: binds

Substance: endogenous p65 of THP-1 cells (from UniProt Q04206 1-551)
binding [5]: binds
binding [6]: binds

Second part, the substance after the results:

binding [1]: binds
Substance: HA-tagged HDAC5 (histone deacetylase 5) (from UniProt Q9UQL6 1-1122) (enzyme)

binding [3]: binds
Substance: endogenous HDAC5 of THP-1 cells (from UniProt Q9UQL6 1-1122) (enzyme)

binding [4]: binds
Substance: endogenous p65 of RAW264 cells (from UniProt Q04207 1-549)
